Measured values from the supplement of paper PMC11732987, “Enantioselective OTUD7B fragment discovery through chemoproteomics screening and high-throughput optimisation” (Communications Chemistry, 2025).
Some of the results follow. The data scatter; read single values as rough.

Chains of the proteins cited; added tags and fusions are not shown. Lines headed by an entry give the natural chain unless they say otherwise; changes in a name come on top. Residues count along the entry.
UniProt Q9Y4B5: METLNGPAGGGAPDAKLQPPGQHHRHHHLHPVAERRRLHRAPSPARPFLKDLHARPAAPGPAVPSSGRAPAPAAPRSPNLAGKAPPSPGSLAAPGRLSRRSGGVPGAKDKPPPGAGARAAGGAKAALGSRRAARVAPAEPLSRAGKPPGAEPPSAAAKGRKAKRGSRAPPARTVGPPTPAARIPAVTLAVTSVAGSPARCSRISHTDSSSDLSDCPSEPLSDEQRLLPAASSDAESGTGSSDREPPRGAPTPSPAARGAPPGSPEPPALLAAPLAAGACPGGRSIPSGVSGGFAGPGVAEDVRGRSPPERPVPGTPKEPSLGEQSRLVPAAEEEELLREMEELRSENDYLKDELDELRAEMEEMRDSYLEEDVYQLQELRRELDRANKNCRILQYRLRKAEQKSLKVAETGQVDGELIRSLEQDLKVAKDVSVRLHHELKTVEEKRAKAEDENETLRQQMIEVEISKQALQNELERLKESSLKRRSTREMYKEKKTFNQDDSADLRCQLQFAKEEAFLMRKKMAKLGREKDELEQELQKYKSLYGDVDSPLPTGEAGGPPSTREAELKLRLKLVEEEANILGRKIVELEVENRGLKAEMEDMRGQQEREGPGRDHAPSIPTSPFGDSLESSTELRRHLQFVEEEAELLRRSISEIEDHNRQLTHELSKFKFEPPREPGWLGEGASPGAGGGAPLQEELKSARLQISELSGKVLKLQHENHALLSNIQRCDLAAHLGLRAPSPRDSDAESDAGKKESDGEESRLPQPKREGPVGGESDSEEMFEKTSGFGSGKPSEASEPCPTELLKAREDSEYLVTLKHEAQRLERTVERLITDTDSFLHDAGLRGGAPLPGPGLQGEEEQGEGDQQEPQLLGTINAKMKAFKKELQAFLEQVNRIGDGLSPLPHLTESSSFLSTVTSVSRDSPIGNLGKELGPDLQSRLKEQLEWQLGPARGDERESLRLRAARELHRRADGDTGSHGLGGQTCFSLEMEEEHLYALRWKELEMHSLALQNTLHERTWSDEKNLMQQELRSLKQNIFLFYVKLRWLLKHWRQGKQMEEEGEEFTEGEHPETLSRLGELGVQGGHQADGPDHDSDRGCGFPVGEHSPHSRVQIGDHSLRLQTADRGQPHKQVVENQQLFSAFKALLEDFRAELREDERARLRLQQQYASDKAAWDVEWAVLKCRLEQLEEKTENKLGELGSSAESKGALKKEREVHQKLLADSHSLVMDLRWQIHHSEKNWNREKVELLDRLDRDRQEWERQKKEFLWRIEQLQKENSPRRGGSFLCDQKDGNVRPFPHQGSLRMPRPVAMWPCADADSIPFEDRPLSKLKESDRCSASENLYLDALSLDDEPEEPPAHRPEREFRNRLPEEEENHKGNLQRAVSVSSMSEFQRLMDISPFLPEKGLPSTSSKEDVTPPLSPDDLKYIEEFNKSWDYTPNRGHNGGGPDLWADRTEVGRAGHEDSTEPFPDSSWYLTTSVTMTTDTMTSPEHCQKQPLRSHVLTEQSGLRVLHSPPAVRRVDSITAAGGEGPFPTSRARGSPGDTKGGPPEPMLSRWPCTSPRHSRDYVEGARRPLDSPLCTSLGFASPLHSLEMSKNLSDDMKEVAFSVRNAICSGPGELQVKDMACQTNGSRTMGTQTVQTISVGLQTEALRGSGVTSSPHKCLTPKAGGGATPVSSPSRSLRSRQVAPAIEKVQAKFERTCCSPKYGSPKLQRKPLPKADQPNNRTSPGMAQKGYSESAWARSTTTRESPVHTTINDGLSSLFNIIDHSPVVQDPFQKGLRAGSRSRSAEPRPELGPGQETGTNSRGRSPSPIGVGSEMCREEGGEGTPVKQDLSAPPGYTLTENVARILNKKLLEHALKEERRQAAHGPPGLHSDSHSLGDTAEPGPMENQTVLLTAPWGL
UniProt Q7Z6M4: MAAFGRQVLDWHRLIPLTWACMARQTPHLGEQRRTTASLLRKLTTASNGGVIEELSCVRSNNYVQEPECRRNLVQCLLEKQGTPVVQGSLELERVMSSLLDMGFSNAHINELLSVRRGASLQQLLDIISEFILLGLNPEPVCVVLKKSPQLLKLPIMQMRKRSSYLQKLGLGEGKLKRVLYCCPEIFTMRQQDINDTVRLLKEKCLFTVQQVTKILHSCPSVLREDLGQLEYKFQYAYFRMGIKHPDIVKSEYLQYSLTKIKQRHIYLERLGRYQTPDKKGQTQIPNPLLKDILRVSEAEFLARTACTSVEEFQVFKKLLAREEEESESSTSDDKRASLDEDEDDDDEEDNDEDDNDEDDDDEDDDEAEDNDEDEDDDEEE
UniProt O00159: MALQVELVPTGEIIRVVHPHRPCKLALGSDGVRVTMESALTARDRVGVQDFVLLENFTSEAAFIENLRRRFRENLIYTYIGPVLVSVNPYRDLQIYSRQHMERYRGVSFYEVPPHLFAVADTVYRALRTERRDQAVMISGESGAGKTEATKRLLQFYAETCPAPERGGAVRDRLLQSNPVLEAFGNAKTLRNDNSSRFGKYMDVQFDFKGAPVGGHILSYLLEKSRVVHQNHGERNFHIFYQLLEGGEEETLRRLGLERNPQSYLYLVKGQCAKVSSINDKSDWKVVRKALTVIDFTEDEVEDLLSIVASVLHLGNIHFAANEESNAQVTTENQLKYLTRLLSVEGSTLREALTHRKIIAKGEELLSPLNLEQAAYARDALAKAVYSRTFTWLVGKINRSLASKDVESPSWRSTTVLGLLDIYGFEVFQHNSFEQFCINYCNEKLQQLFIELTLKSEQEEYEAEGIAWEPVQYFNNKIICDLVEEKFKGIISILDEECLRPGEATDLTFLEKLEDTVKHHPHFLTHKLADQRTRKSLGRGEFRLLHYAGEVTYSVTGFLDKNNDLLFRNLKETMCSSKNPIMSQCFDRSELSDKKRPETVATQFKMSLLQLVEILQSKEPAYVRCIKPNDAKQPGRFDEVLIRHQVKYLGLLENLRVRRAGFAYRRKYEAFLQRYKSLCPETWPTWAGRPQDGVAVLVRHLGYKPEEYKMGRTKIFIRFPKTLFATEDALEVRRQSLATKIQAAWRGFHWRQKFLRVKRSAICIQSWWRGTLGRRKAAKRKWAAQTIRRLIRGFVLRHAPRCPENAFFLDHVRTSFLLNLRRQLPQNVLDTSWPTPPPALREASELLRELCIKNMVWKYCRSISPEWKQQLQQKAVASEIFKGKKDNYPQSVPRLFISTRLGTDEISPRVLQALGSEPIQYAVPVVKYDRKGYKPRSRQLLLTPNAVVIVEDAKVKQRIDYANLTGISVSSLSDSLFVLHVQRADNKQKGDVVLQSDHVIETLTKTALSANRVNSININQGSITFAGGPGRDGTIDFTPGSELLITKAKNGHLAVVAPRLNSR
UniProt Q13459: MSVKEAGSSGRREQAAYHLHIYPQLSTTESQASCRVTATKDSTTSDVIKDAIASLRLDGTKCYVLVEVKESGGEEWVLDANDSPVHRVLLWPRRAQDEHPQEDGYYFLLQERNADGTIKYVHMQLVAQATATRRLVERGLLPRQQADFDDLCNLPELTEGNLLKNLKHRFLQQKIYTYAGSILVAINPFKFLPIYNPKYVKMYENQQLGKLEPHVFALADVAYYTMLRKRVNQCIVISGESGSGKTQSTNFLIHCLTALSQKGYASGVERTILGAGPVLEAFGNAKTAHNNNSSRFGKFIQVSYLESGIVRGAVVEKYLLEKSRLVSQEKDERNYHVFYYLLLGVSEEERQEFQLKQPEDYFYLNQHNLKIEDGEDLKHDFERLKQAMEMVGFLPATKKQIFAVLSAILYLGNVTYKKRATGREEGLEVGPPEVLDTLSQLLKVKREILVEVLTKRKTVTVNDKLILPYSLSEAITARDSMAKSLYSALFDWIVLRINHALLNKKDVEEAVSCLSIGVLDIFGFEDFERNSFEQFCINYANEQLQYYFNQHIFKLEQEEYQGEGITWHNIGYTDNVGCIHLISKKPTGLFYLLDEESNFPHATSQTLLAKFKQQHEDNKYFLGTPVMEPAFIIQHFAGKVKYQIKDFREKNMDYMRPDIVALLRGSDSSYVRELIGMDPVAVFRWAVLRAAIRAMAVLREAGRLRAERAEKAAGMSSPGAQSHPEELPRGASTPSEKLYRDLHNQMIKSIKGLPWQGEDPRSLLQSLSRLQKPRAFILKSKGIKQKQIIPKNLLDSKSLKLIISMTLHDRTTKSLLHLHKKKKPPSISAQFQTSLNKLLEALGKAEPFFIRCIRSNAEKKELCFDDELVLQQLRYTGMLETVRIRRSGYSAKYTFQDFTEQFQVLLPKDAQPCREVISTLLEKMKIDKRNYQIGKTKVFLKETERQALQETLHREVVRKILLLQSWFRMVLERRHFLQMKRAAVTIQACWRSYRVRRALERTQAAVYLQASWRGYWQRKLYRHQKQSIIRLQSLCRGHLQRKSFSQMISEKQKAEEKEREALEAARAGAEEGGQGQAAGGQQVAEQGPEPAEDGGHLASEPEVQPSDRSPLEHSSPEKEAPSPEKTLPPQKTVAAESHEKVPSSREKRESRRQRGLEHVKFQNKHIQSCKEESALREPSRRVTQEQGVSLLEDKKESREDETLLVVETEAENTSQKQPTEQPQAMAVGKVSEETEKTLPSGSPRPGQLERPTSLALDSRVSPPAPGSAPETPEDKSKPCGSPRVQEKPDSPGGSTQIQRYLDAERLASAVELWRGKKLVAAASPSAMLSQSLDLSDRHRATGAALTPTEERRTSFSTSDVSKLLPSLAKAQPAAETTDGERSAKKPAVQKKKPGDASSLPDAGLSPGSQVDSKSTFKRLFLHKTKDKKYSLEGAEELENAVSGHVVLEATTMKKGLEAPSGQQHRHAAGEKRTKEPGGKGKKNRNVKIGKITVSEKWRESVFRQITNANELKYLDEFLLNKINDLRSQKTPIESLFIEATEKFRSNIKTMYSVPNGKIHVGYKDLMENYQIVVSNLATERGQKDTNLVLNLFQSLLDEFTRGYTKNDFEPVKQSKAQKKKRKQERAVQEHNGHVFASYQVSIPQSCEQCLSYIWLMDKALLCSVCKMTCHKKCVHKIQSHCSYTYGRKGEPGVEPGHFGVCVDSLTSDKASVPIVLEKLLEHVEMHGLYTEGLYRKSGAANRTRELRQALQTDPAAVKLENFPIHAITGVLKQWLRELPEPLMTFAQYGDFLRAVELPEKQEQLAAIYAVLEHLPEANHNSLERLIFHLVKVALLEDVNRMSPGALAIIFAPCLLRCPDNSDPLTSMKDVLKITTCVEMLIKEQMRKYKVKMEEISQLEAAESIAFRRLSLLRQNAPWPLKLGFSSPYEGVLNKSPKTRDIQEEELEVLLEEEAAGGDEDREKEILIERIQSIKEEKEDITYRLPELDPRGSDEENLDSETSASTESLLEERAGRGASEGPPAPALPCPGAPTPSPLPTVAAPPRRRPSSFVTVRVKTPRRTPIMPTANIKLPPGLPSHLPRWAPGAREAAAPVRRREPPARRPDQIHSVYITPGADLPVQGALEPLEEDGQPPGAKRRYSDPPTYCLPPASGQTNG
UniProt Q9Y217: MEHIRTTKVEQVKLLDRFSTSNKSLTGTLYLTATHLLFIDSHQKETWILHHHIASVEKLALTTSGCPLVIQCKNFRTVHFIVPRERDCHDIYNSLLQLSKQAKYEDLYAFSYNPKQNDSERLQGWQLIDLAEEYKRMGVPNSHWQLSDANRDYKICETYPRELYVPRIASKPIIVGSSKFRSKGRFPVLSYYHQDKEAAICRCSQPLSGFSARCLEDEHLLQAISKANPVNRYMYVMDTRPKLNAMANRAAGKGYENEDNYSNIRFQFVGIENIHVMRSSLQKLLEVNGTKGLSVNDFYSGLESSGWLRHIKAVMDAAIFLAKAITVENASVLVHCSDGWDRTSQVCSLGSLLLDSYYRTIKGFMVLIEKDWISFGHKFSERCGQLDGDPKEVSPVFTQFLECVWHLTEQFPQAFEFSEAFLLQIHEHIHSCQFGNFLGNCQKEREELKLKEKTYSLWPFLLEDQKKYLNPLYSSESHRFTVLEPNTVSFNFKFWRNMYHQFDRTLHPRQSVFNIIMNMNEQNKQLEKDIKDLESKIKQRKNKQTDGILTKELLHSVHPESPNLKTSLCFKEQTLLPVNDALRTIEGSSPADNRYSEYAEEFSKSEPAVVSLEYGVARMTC
UniProt P52701, 79-99: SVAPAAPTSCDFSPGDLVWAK

Experiments:
[1] = compound: ClCC(=O)N[C@@H]1CCCc2ccccc12; experiment: log2 mean competition ratio of IA-DTB cysteine labelling (DMSO/compound) (log2 ratio); higher = stronger cysteine engagement by compound; conditions: treatment time: 4 h, cell line lysate: HEK293T
Description: (§1)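 IA-DTB competitive cysteine chemoproteomics in HEK293T RIPA lysate. Lysates were treated with compound 29 or 30 at 50 or 200 µM for 4 h, then IA-DTB (500 µM, 1 h), trypsin-digested, NeutrAvidin-enriched and analysed by diaPASEF. Competition ratio = intensity DMSO / intensity compound (n=4 treated, n=64 DMSO); binding: mean log2 CR ≥ 1 and p ≤ 0.05 plus QC filters. Target is the cysteine site.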

[2] = compound: ClCC(=O)N[C@H]1CCCc2ccccc12; experiment: as above; conditions: treatment time: 4 h, cell line lysate: HEK293T
Description: as §1

Target: MTCL1 C1615 (UniProt Q9Y4B5)
- log2 mean competition ratio ([1]; 50 µM): 0.0315
- log2 mean competition ratio ([1]; 200 µM): 0.0589
- log2 mean competition ratio ([2]; 50 µM): 0.182
- log2 mean competition ratio ([2]; 200 µM): -0.224

Target: MTERF4 C69 (UniProt Q7Z6M4)
- log2 mean competition ratio ([1]; 50 µM): -0.0518
- log2 mean competition ratio ([1]; 200 µM): 0.329
- log2 mean competition ratio ([2]; 50 µM): -0.116
- log2 mean competition ratio ([2]; 200 µM): 0.294

Target: MTMR4 C637 (UniProt Q9NYA4)
- log2 mean competition ratio ([1]; 50 µM): 0.045
- log2 mean competition ratio ([1]; 200 µM): 0.275
- log2 mean competition ratio ([2]; 50 µM): -0.262
- log2 mean competition ratio ([2]; 200 µM): 0.15

Target: MRPL53 C49 (UniProt Q96EL3)
- log2 mean competition ratio ([1]; 50 µM): -0.202
- log2 mean competition ratio ([1]; 200 µM): 0.0417
- log2 mean competition ratio ([2]; 50 µM): -0.0665
- log2 mean competition ratio ([2]; 200 µM): 0.145

Target: MYCBP2 C222 (UniProt O75592)
- log2 mean competition ratio ([1]; 50 µM): 0.435
- log2 mean competition ratio ([1]; 200 µM): 0.318
- log2 mean competition ratio ([2]; 50 µM): 0.29
- log2 mean competition ratio ([2]; 200 µM): 0.0438

Target: MYO1C C161 (UniProt O00159)
- log2 mean competition ratio ([1]; 50 µM): -0.113
- log2 mean competition ratio ([1]; 200 µM): 0.0445
- log2 mean competition ratio ([2]; 50 µM): 0.258
- log2 mean competition ratio ([2]; 200 µM): 0.115

Target: NAMPT C39
- log2 mean competition ratio ([1]; 50 µM): -0.06
- log2 mean competition ratio ([1]; 200 µM): -0.132
- log2 mean competition ratio ([2]; 50 µM): 0.341
- log2 mean competition ratio ([2]; 200 µM): -0.0414

Target: MYO9B C1876 (UniProt Q13459)
- log2 mean competition ratio ([1]; 50 µM): 0.347
- log2 mean competition ratio ([1]; 200 µM): 0.163
- log2 mean competition ratio ([2]; 50 µM): -0.143
- log2 mean competition ratio ([2]; 200 µM): 0.134

Target: MYO5B C10
- log2 mean competition ratio ([1]; 50 µM): -0.164
- log2 mean competition ratio ([1]; 200 µM): 0.26
- log2 mean competition ratio ([2]; 50 µM): -0.107
- log2 mean competition ratio ([2]; 200 µM): 0.184

Target: MTMR6 C214 (UniProt Q9Y217)
- log2 mean competition ratio ([1]; 50 µM): -0.176
- log2 mean competition ratio ([1]; 200 µM): 0.345
- log2 mean competition ratio ([2]; 50 µM): -0.819
- log2 mean competition ratio ([2]; 200 µM): 0.111

Target: MTMR2 C417 (UniProt Q13614)
- log2 mean competition ratio ([1]; 50 µM): -0.394
- log2 mean competition ratio ([1]; 200 µM): -0.48
- log2 mean competition ratio ([2]; 50 µM): -0.486
- log2 mean competition ratio ([2]; 200 µM): -0.338

Target: MSH6 C88 (UniProt P52701)
- log2 mean competition ratio ([1]; 50 µM): 0.295
- log2 mean competition ratio ([1]; 200 µM): 0.383
- log2 mean competition ratio ([2]; 50 µM): 0.315
- log2 mean competition ratio ([2]; 200 µM): 0.401

Target: MTHFD1L C814
- log2 mean competition ratio ([1]; 50 µM): -0.209
- log2 mean competition ratio ([1]; 200 µM): -0.0544
- log2 mean competition ratio ([2]; 50 µM): -0.493
- log2 mean competition ratio ([2]; 200 µM): 0.0586

Target: MYO9B C1857 (UniProt Q13459)
- log2 mean competition ratio ([1]; 50 µM): -0.0896
- log2 mean competition ratio ([1]; 200 µM): 0.343
- log2 mean competition ratio ([2]; 50 µM): -0.486
- log2 mean competition ratio ([2]; 200 µM): 0.148

Target: MRPL2 C213 (UniProt Q5T653)
- log2 mean competition ratio ([1]; 50 µM): 0.188
- log2 mean competition ratio ([1]; 200 µM): 0.181
- log2 mean competition ratio ([2]; 50 µM): 0.351
- log2 mean competition ratio ([2]; 200 µM): 0.0548

Target: NAA15 C214
- log2 mean competition ratio ([1]; 50 µM): -0.26
- log2 mean competition ratio ([1]; 200 µM): -0.16
- log2 mean competition ratio ([2]; 50 µM): -0.398
- log2 mean competition ratio ([2]; 200 µM): -0.221

Target: MRPL38 C143 (UniProt Q96DV4)
- log2 mean competition ratio ([1]; 50 µM): 0.378
- log2 mean competition ratio ([1]; 200 µM): -0.337
- log2 mean competition ratio ([2]; 50 µM): 0.463
- log2 mean competition ratio ([2]; 200 µM): -0.404
